Measured values published in PMC4764562, “The Sec7 N-terminal regulatory domains facilitate membrane-proximal activation of the Arf1 GTPase” (eLife, 2016).
No constants are given. Whether binding was seen depends on the method and setting. For some of these results: Where a sequence is shown, tags or fusion partners need not be part of it.

How the values were obtained:
GST-Arl1 = target: T1, GST-Arl1 (UniProt P38116); test: pull-down; pulldown of Sec7ΔC with a great excess of GST-GTPase bound to GDP or GMPPNP; SDS-PAGE, Coomassie staining; both purified
T1 sequence: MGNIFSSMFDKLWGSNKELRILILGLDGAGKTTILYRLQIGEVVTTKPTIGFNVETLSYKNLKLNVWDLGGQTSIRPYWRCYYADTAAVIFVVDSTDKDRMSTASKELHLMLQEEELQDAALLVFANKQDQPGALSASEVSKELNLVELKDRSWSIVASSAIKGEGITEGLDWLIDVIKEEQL

GST-Arf1 = target: T2, GST-Arf1 (UniProt P11076); test: as above
T2 sequence: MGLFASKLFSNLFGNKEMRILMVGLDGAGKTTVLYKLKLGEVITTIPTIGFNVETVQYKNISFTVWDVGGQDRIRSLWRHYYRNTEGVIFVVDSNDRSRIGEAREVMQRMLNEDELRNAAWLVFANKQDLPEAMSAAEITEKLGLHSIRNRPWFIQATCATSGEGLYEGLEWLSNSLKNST

myristoylated Arf1 = target: T3, myristoylated Arf1 (UniProt P11076); test: co-sedimentation; liposome pelleting; Arf1 or Arl1 bound to liposomes after EDTA-mediated loading with the indicated nucleotide; fraction recovered relative to liposome-free pelleting; both purified
T3 sequence (chain, myristoylated (coexpressed with NMT1)): T2 sequence

membrane-bound Arl1 = target: T4, membrane-bound Arl1 (UniProt P38116); test: as above
T4 sequence: T1 sequence

binding (GST-Arl1): no binding
binding (GST-Arf1): no binding
binding (myristoylated Arf1): no binding
binding (membrane-bound Arl1): no binding
B1: S. cerevisiae Sec7ΔC (residues 203-1017) (domain or fragment, UniProt P11075 203-1017, looked up)
chain: PRSTHTRNISLSSNGSNTNSTIILVKTTLETILNDKDIKKNSNAQKAIERTLQKFKEFDPQTTNNPHYVDSILVFEALRASCRTKSSKVQSLALDCLSKLFSFRSLDETLLVNPPDSLASNDQRQDAADGITPPPKQKIIDAAIDTISDCFQGEGTDDRVELQIVRALSSCILEEDSSSLCHGASLLKAIRTIYNVFVFSLNPSNQGIAQATLTQIISSVYDKIDLKQSTSSAVSLSTKNHQQQSAIELSEASENAETPAPLTLENMDKLNDDEERLMDAQQPDSIAITNQDLAVKDAFLVFRVMAKICAKPLETELDMRSHAVRSKLLSLHIIYSIIKDHIDVFLSHNIFLPGKERVCFIDSIRQYLRLVLSRNAASPLAPVFEVTLEIMWLLIANLRADFVKEIPVFLTEIYFPISELTTSTSQQKRYFLSVIQRICNDPRTLVEFYLNYDCNPGMPNVMEITVDYLTRLALTRVEITQTQRSYYDEQISKSLSTYNFSQLPLLTSSNLSSSPDVGQVNLLFPLDFALKMVSLNCIVSVLRSLSSWAHKALNPNTHTANKVLLNTTSSARQESRSSLSNDVRSSIMTSNDDFKPTYEDEESRSLSSQNIDADDPTQFENLKLRKTALSECIAIFNNKPKKAIPVLIKKGFLKDDSPISIAKWLLETEGLDMAAVGDYLGEGDDKNIAIMHAFVDEFDFTGMSIVDALRSFLQSFRLPGEGQKIDRFMLKFAERFVDQNPGVFSKADTAYVLSYSLIMLNTDLHSSQIKNKMSLQEFLENNEGIDNGRDLPRDFLEGLFNEIANNEIKLISEQH
notes: Sec7 of S. cerevisiae, residues 203-1017 (DCB/HUS and GEF domains); also called Sec7(203-1017); construct lacking the HDS1-4 domains with the GEF domain; source: E. coli, purified (Ni-NTA, MonoQ, Superdex 200)
